US20260263425A1, “USE OF COMPOSITION CONTAINING CANDESARTAN OR AZILSARTAN” (GACHON UNIVERSITY OF INDUSTRY-ACADEMIC COOPERATION …, priority 2023, published 2026)
For at least one compound, name, drawing or mass did not settle the structure.

Key:
[1] = test system: HepG2 cells; assay: Insulin-stimulated phosphorylation of Akt and downstream molecules in palmitic acid-treated HepG2 cells (immunoblot); format: cell-based, Human
Description: Tissues and cells were lysed using a modified RIPA buffer (50 mM Tris-HCl pH 7.4, 1% Triton X-100, 150 mM NaCl, 1 mM EDTA; Cell Signaling Technology) freshly supplemented with 1 mM Na3VO4, […], and protease inhibitor cocktail (Complete Mini, Roche). Equal amounts of proteins were separated on 4-12% gels and electrophoretically transferred to polyvinylidene difluoride (PVDF) membranes. Immunoblots were visualized with horseradish peroxidase-conjugated secondary antibodies and enhanced chemiluminescence kits (ECL kits; GE Healthcare Life Sciences) using a charge-coupled device camera (Amersham ImageQuant 800). Specifically, nine FDA-approved ARBs (losartan, eprosartan, fimasartan, irbesartan, olmesartan, telmisartan, valsartan, azilsartan, and candesartan) commonly prescribed for the treatment of hypertension in human patients were administered to HepG2 cells at various concentrations (5 μM, 10 μM, and 20 μM) in combination with 0.5 mM palmitic acid for 16 hours. Then, the insulin-stimulated phosphorylation of the key insulin signaling molecule Akt and its downstream signaling molecules GSK3β and FOXO3 was investigated. The results of Example 1 indicate that azilsartan and candesartan have beneficial off-target effects on insulin signaling and intracellular Ca^2+ homeostasis that are distinct from their known effects as angiotensin receptor blockers. […]

[2] = test system: HepG2 cells; assay: Intracellular Ca2+ level and lipid accumulation in palmitic acid-treated HepG2 cells (confocal microscopy, fluorescent dyes); format: cell-based, Human; settings: for lipid accumulation: palmitic acid-treated HepG2, BODIPY; for fluorescence intensity for intracellular Ca2+: palmitic acid-treated HepG2, Calbryte 630 AM
Description: Subsequently, to determine whether ARBs can regulate intracellular Ca^2+ levels and lipid accumulation in HepG2 cells treated with palmitic acid, the effects of ARBs were evaluated using confocal microscopy and the fluorescent dyes Calbryte 630 AM (for intracellular Ca^2+) and BODIPY (for lipids).
Specifically, for intracellular Ca^2+ concentration and lipid accumulation, HepG2 cells were plated on slide glasses, treated with 0.5 mM palmitic acid for 16 hours, and incubated with 4 μM Fura-2-AM (Teflabs), […] Calbryte 630 AM, or […] BODIPY in PBS for 30 minutes at 37° C. in the dark. The cells were then washed with PBS for 10 minutes. Subsequently, the cells were counterstained with 4,6-diamidino-2-phenylindole (DAPI) to visualize nuclei. After mounting, the stained slides were imaged using a Zeiss LSM 700 or Zeiss LSM 980 laser scanning confocal microscope (Carl Zeiss) and analyzed using ZEN 2010 Software (Carl Zeiss). Intracellular Ca^2+ was quantified from the microscopic images using the NIH ImageJ software (https://imagej.nih.gov/ij/, 1997-2017). […]

[3] = test system: AKT PH domain; assay: Insulin-stimulated membrane localization of AKT PH domain in palmitic acid-treated HepG2 cells; format: cell-based, Human; settings: 100 nM insulin 15 min, AKT PH mCherry
Description: One mechanism of insulin resistance is that, in the state of obesity and diabetes, an increase in the concentration of calcium in the cytoplasm leads to calcium binding to PI(3, 4, 5)P3 present in the cell membrane, generating Ca^2+-PI(3, 4, 5)P3, which inhibits binding to the PH domain of AKT and suppresses AKT protein activity, thereby inducing insulin resistance. Accordingly, it was evaluated whether azilsartan and candesartan, which were shown in the above examples to attenuate palmitic acid-induced intracellular Ca^2+ overload, regulate the intracellular localization of the AKT PH domain, which functions as a biosensor for PI(3, 4, 5)P3.
(§1) Specifically, CHO cells or HepG2 cells were transfected with cDNA encoding hAKT PHD (residues 1 to 144) using Lipofectamine (Life Technologies). To monitor the intracellular localization of endogenous AKT, liver sections were antigen activated with 10 mM Tris/HCl (pH 9.0) for 20 minutes, treated with serum-free protein blocking solution (DAKO) for 30 minutes, and permeabilized with 0.5% Tween 20 for 15 minutes. The liver sections were then incubated with anti-AKT PHD antibody (SKB1, #05-591, Sigma-Aldrich) and FITC-conjugated secondary antibody. After mounting, the liver sections were imaged with an LSM 980 laser scanning confocal microscope (Carl Zeiss), and the images were analyzed using ZEN software (Carl Zeiss).
When administering azilsartan or candesartan to cells, the impairment induced by palmitic acid was recovered.

[4] = test system: AKT PH domain; assay: Insulin-stimulated membrane localization of AKT PH domain in PMA-treated CHO-IR cells; format: cell-based, Chinese hamster
Description: as §1, with “Zeiss). Similarly, in phorbol myristate acetate (PMA)-treated Chinese hamster ovary-insulin receptor (CHO-IR) cells, it was confirmed that insulin-stimulated membrane localization of the AKT PH domain was rescued by treatment with azilsartan or candesartan (FIG. 3b).” for “Zeiss).”

[5] = test system: HepG2 cells; assay: [Ca2+]i signaling and SOC-mediated Ca2+ influx by Fura-2 AM in palmitic acid-treated HepG2 cells; format: cell-based, Human
[6] = test system: HepG2 cells; assay: Expression of essential Ca2+ channels and transporters in palmitic acid-treated HepG2 cells (qRT-PCR, immunoblot); format: cell-based, Human
[7] = test system: HepG2 cells; assay: Endoplasmic reticulum Ca2+ content in palmitic acid-treated HepG2 cells (Mag-Fluo-4 AM, ER-Tracker Red); format: cell-based, Human; settings: palmitic acid-treated HepG2, to the same level as the control cells
[8] = test system: C57BL/6 mice fed a high-fat diet (HFD); assay: Insulin resistance in high-fat diet-fed mice (body weight, food intake, IP-GTT, IP-ITT); format: in vivo
[9] = test system: C57BL/6 mice fed a high-fat diet (HFD); assay: Fatty liver improvement and blood lipid profile in HFD-fed mice; format: in vivo
[10] = test system: C57BL/6 mice fed a high-fat diet (HFD); assay: Renal function and gout markers in serum of HFD-fed mice; format: in vivo
[11] = test system: liver tissues of HFD-fed mice; assay: Hepatic transcriptome (RNA-sequencing, GSEA) of HFD-fed mice; format: in vivo; settings: candesartan-administered group vs control group
[12] = test system: liver of HFD-fed mice; assay: Hepatic expression of Ca2+ channel and transporter (SOCE-related) genes and proteins in HFD-fed mice; format: in vivo
[13] = test system: liver of HFD-fed mice; assay: Hepatic expression of genes and proteins of ER stress, glucose and lipid metabolism in HFD-fed mice; format: in vivo
[14] = test system: HFD-fed mice; assay: Postprandial phosphorylation of AKT and downstream substrates in HFD-fed mice; format: in vivo; settings: fasted overnight, re-fed HFD 4 hours
Description: Tissues and cells were lysed using a modified RIPA buffer (50 mM Tris-HCl pH 7.4, 1% Triton X-100, 150 mM NaCl, 1 mM EDTA; Cell Signaling Technology) freshly supplemented with 1 mM Na3VO4, […], and protease inhibitor cocktail (Complete Mini, Roche). Equal amounts of proteins were separated on 4-12% gels and electrophoretically transferred to polyvinylidene difluoride (PVDF) membranes. Immunoblots were visualized with horseradish peroxidase-conjugated secondary antibodies and enhanced chemiluminescence kits (ECL kits; GE Healthcare Life Sciences) using a charge-coupled device camera (Amersham ImageQuant 800). To elucidate the role of candesartan on insulin signaling in vivo, mice were fasted overnight and then re-fed an HFD for 4 hours, and postprandial phosphorylation of AKT and its downstream signaling substrates FOXO1A, FOXO3A, GSK3B, and AS160 was measured.

[15] = test system: endogenous AKT; assay: AKT membrane localization in hepatocytes of HFD-fed mice; format: in vivo; settings: 1.0 mg/kg candesartan
[16] = palmitic acid-treated HepG2, immunoblot
[17] = palmitic acid-treated HepG2, qRT-PCR
[18] = 0.5 or 1.0 mg/kg daily, vs control group

CCOc1nc2cccc(C(=O)O)c2n1Cc1ccc(-c2ccccc2-c2nnn[nH]2)cc1 [candesartan]
insulin-stimulated phosphorylation of Akt, GSK3B, and FOXO3 ([1]; HepG2, 0.5 mM palmitic acid 16 h, ARB 5, 10, 20 μM, dose-dependent): completely restored | insulin-stimulated phosphorylation of AKT, FOXO3, GSK3B, and AS160 ([1]; palmitic acid-treated HepG2, compared to control cells): increased | palmitic acid-induced lipid accumulation ([2]; HepG2, BODIPY, dose-dependent (Example 2-1)): significantly reduced | lipid accumulation [2]: significantly reduced | fluorescence intensity for intracellular Ca2+ [2]: significantly reduced | intracellular Ca2+ overload ([2]; palmitic acid-treated HepG2, Fluo-3AM (Example 2-1)): attenuated | palmitic acid-induced impairment of insulin-stimulated membrane localization of the AKT PH domain [3]: recovered | insulin-stimulated membrane localization of the AKT PH domain [4]: rescued | persistent intracellular Ca2+ overload ([Ca2+]i, Fura-2) ([5]; HepG2, 24 hours after palmitic acid treatment): significantly attenuated | SOC-mediated Ca2+ influx ([5]; palmitic acid-treated HepG2, after store depletion by cyclopiazonic acid): effectively reduced | expression of SERCA2 protein [6, 16]: significantly increased | expression of SOC proteins ORAI2, STIM1, TRPC1, and TRPM7 [6, 16]: normalizing | expression of Orai1 and Trpm7 [6, 17]: downregulated | expression of SOC-related genes Itpr3, Orai2, Stim1, and Trpc1 [6, 17]: dramatically down-regulated | expression of Serca1 [6, 17]: upregulated | Ca2+ content in the endoplasmic reticulum [7]: normalized | body weight ([8]; 0.5 or 1.0 mg/kg daily oral, 21 days, candesartan cilexetil used): gradual dose-dependent decrease | glucose tolerance (IP-GTT, AUC) [8, 18]: significantly improved | insulin sensitivity (IP-ITT, AUC) [8, 18]: significantly improved | histological liver parameters (H&E staining of liver sections) ([9]; HFD mice): improved | liver weight-to-body weight ratio ([9]; HFD mice): decreased | serum alanine transaminase (ALT) ([9]; HFD mice): improved | serum aspartate transaminase (AST) ([9]; HFD mice): improved | serum levels of low-density lipoprotein cholesterol ([9]; HFD mice): significantly reduce | serum levels of triglycerides ([9]; HFD mice): significantly reduce | hepatic triglyceride content ([9]; HFD mice, normalized to total protein): improved | expression of F4/80 in subcutaneous and visceral adipose tissue ([9]; HFD mice, qRT-PCR): reduced | inflammatory macrophage infiltration and liver inflammation (F4/80 immunohistochemical staining) ([9]; compared to the HFD-fed control group): significantly reduced | serum creatinine [10]: improved | serum uric acid [10]: improved | PIP signaling system signature and calcium signaling signature (GSEA) [11]: significantly up-regulated | oxidative phosphorylation signature and PPAR signaling signature (GSEA) [11]: significantly down-regulated | hepatic expression of Orai2, Serca1, Trpm4, and Trpm7 ([12]; HFD-fed mice, qRT-PCR): dramatically down-regulated | hepatic expression of Pmca2 ([12]; HFD-fed mice, qRT-PCR): up-regulated | ORAI2, STIM1, and TRPM7 protein levels ([12]; liver, immunoblot, vs control group): decreased | PMCA2 and SERCA2 protein levels ([12]; liver, immunoblot, vs control group, increases were not statistically significant): increasing | expression levels of Nur77, Nurr1, Ppard, and Pparg ([13]; qRT-PCR): significantly reduced | expression of Atf3 and Xbp1 ([13]; qRT-PCR): dramatically reduced | levels of NURR1, PPARg, and XBP1 (immunoblot) ([13]; vs control group): significantly reduced | postprandial insulin signaling in muscle tissues [14]: improve | intracellular localization of endogenous AKT in hepatocytes in response to re-feeding [15]: predominantly accumulated at the plasma membrane

CCCCc1nc(C)c(CC(=S)N(C)C)c(=O)n1Cc1ccc(-c2ccccc2-c2nnn[nH]2)cc1 [fimasartan]
lipid accumulation [2]: did not significantly affect | fluorescence intensity for intracellular Ca2+ [2]: did not significantly affect | palmitic acid-induced impairment of insulin-stimulated membrane localization of the AKT PH domain [3]: did not rescue

CCCc1nc(C(C)(C)O)c(C(=O)O)n1Cc1ccc(-c2ccccc2-c2nnn[nH]2)cc1 [olmesartan]
lipid accumulation [2]: did not significantly affect | fluorescence intensity for intracellular Ca2+ [2]: did not significantly affect | palmitic acid-induced impairment of insulin-stimulated membrane localization of the AKT PH domain [3]: did not rescue
